Test results taken from article PMC4869170.

The chains behind the UniProt entries cited, without tags or fusion partners.
UniProt Q9Y266: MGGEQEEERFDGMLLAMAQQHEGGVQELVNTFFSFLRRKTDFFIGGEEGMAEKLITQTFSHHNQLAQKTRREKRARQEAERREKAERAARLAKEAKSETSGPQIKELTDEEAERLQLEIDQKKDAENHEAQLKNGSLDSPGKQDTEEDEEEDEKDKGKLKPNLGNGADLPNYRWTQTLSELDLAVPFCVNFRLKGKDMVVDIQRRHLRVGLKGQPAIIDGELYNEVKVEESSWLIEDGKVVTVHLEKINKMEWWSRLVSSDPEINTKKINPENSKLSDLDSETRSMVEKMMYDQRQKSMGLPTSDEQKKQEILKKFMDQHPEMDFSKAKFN

Biological target: T1, WDR19 (human) (UniProt Q8NEZ3)
T1 sequence: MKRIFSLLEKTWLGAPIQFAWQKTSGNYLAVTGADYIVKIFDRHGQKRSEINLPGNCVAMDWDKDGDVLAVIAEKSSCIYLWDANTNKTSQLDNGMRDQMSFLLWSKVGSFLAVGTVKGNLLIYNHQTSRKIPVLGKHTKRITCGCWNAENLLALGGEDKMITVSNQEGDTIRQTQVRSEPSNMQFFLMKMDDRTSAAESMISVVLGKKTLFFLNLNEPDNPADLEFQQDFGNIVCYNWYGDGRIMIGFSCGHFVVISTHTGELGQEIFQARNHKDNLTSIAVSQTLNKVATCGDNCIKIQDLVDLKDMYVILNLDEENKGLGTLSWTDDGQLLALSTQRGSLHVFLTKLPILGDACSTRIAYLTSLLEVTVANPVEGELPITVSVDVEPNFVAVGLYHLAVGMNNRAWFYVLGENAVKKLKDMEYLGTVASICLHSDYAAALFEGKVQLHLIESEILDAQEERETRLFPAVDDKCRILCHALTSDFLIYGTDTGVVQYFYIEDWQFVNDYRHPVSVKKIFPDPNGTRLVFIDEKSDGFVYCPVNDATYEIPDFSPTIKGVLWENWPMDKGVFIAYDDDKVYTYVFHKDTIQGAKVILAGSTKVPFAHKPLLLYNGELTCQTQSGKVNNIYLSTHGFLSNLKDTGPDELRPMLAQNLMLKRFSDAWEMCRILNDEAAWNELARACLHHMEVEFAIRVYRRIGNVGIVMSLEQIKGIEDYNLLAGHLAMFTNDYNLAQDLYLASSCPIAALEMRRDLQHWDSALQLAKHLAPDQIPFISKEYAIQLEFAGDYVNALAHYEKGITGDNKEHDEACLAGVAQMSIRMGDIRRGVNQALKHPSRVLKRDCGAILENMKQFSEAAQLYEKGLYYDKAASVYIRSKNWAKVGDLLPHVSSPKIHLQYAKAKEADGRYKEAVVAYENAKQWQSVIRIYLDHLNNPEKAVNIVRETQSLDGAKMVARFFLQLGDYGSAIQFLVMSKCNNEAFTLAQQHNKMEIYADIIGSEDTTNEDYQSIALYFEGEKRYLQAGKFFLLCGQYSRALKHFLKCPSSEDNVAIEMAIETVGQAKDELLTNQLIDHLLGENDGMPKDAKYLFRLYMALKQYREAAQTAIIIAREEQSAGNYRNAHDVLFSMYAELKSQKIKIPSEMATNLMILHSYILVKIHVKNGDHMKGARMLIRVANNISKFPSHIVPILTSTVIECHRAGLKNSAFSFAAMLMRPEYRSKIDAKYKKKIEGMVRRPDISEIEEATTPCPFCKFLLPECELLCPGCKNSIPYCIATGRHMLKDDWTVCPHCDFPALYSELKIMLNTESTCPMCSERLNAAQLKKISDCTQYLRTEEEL
Assay: affinity purification with mass spectrometry; SF-TAP-tagged bait overexpressed in HEK293T; lysis in 0.5% NP-40 in TBS (30 mM Tris-HCl pH 7.4, 150 mM NaCl); two steps at 4 °C: Strep-Tactin superflow (desthiobiotin elution), then anti-FLAG M2 agarose (FLAG peptide elution); LC-MS/MS; interactions scored by socioaffinity

Substance: NUDC (from UniProt Q9Y266 1-331)
- binding: no binding

Results are given in words; binding and its absence hold for the method and conditions named. In cells and extracts the contact can be indirect. Here binding means that the protein was enriched with, or labelled near, the bait; the list need not be complete. A no says only that the protein was not detected with the bait.
